Reference: patent publication US20260028401A1 (SHENGHE CHINA BIOPHARMACEUTICAL, published 2026)
Results are given in words; binding and its absence hold for the method and conditions named. Some results given as binding are weak or reduced against the parent protein; the word gives no strength.

Amino acid sequences for entries named in this document (tags omitted). A change or cut given only in a name is not applied to a line headed by its entry. Residues count along the entry.
UniProt Q8N423: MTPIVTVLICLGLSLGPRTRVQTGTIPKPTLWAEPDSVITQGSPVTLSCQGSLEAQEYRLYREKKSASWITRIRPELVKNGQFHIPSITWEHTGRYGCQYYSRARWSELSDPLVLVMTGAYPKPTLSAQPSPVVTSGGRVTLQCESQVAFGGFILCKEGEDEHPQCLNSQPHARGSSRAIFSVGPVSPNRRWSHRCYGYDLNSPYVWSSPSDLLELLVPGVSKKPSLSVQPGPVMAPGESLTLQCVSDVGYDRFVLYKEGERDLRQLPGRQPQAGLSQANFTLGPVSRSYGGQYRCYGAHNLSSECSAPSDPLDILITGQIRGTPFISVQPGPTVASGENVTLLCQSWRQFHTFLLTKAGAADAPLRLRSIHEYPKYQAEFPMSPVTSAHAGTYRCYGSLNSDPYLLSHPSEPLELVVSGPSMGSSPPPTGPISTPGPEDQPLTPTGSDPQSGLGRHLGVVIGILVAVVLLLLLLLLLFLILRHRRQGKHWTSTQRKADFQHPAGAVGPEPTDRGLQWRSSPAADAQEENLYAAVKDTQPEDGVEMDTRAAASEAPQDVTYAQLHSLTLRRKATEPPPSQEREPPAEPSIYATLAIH
ILT4 on CHO-ILT4 cells (Manufacturer: Kang Yuan Bochuang, Cat: KC-1473): residues 22-597 of Q8N423
Human LILRB2/CD85d/ILT4 Protein, His Tag (Manufacturer: KACTUS, Cat: LIL-HM4B2): residues 22-460 of Q8N423

How the values were obtained:
[1] = target: ILT4 on CHO-ILT4 cells (Manufacturer: Kang Yuan Bochuang, Cat: KC-1473) (UniProt Q8N423); test: flow cytometry on CHO-ILT4 cells, single concentration (2.5 ug/mL final per paragraph 56), anti-camelid VHH PE secondary
[2] = target: ILT4 on CHO-ILT4 cells (Manufacturer: Kang Yuan Bochuang, Cat: KC-1473) (UniProt Q8N423); test: flow cytometry titration on CHO-ILT4 cells, anti-camelid VHH PE secondary
[3] = target: Human LILRB2/CD85d/ILT4 Protein, His Tag (Manufacturer: KACTUS, Cat: LIL-HM4B2) (human) (UniProt Q8N423); test: ELISA, plate coated with Human LILRB2 at 1 ug/mL, anti-VHH-HRP detection
[4] = target: Human LILRB2/CD85d/ILT4 Protein, His Tag (Manufacturer: KACTUS, Cat: LIL-HM4B2) (human) (UniProt Q8N423); test: ELISA, Human LILRB2 coated at 1 ug/mL, anti-VHH-HRP secondary, OD450
[5] = target: ILT4 on CHO-ILT4 cells (Manufacturer: Kang Yuan Bochuang, Cat: KC-1473) (UniProt Q8N423); test: flow cytometry on CHO-ILT4 cells, single concentration 2.5 ug/mL, anti-VHH PE detection

binding [1]: binds
binding [2]: binds
binding [3]: binds
binding [4]: binds
binding [5]: binds
B1: the antibody of the present invention (anti-ILT4 single-domain antibody, alpaca VHH, SEQ ID NO: 4) (VHH)
VHH: EVQLVESGGGLGQAGGSLRLSCVVSGRTFSRYAMGWFRQAPGKEREFVAAISWSPGDITTYADSVRGRFTISRDNAKNTVYLQMNSLKPEDTAVYYCAADPTAWGTQYDYWGQGTQVTVSS
notes: VHH screened from an alpaca immune library
